Some of the results follow. Shown are side measurements of this screen, not its main read-out; they come without a call. The list favours compounds with an active or inconclusive main result. Words in brackets tell the shape of the fitted curve; partial curves, single points and poor fits give uncertain potencies.
Experiment: qHTS Assay to Find Inhibitors of Chronic Active B-Cell Receptor Signaling
Settings: ABC-DLBCL IkBa-CBG/CBR reporter, luminescence ratio (green luciferase fused to IkBa over red control in TMD8 lymphoma cells), 4 h
Method in brief: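 TMD8 human ABC-DLBCL cells with doxycycline-inducible IκBα–green luciferase fusion and unfused red luciferase, in 0.5% FBS medium; compounds up to 46 uM, 4 h at 37C. Green/red luminescence ratio, filter-overlap corrected, fitted to concentration-response curves.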

[1] = measured here: CBR red luminescence, cell number
[2] = measured here: IkBa-CBG green luminescence

Row | SMILES | AC50 [1] | AC50 [2]
1 | Cc1ccc(N=CC2=C(O)CC(C)(C)CC2=O)nc1 | 0.517 µM [rising, full curve, poor fit] | –
2 | CCOc1c(Nc2ccc(C(C)C)cc2)c(=O)c1=O | 11.2 µM [rising, partial curve, poor fit] | –
3 | O=C(Cn1nc(CNc2ccc(Cl)cc2)[n+]2c1CCCCC2)c1ccc(Cl)cc1 | 2.59 µM [rising, full curve, poor fit] | –
4 | Cc1ccc(S(=O)(=O)N2CCN(C(=O)CN3C(=O)NC(C)(c4ccc(Cl)cc4)C3=O)CC2)c(C)c1 (stereo not given) | 1.84 µM [rising, partial curve] | –
5 | O=C(CCNC(=O)c1ccccc1Cl)NCCC1=CCCCC1 | 18.4 µM [rising, single point] | –
6 | CCNc1nc(NCC)n2c(SCC(=O)Nc3cccc(F)c3)nnc2n1 | 32.6 µM [falling, single point] | –
7 | O=C(Cn1nc(C(F)F)cc1C(F)F)NNC(=S)Nc1ccc([N+](=O)[O-])cc1 | 10 µM [rising, partial curve, poor fit] | –
8 | O=C(Nc1ccnc(-c2cccnc2)n1)c1ccc(Cl)c(Cl)c1 | 3.16 µM [rising, single point] | –
9 | CCN(C(=O)c1cn(C)c(=O)c2cc(OC)c(OC)cc12)c1ccccc1C | 29.1 µM [falling, single point] | –
10 | COc1cc(SC)ccc1C(=O)Nc1ncc(C)s1 | 2.24 µM [falling, full curve, poor fit] | –
11 | O=C(Nc1ccccc1)c1cccc(N2C(=O)C3C4CC(C(Br)C4Br)C3C2=O)c1 (stereo not given) | 22.4 µM [falling, single point] | –
12 | COCCCn1c(C(=O)NCCN2CCOCC2)cc2c(=O)n3ccccc3nc21 | 14.1 µM [falling, partial curve] | –
13 | CCOC(=O)c1ccc2c(c1)nc(SCc1cn3ccsc3n1)n2CC | 11.2 µM [falling, partial curve, poor fit] | –
14 | COc1ccc(/C=C/c2ccncc2)cc1 | 0.631 µM [rising, full curve, poor fit] | –
15 | Cc1cc(N)ccc1N=Nc1c(C)n(C)n(-c2ccccc2)c1=O | 14.6 µM [rising, single point] | –
16 | CS(=O)(=O)N1CCCC(C(=O)c2cccc(Cl)c2)C1 (stereo not given) | 3.16 µM [rising, partial curve, poor fit] | –
17 | O=C(N/N=C/c1ccccn1)c1sc2ccccc2c1Cl | 3.16 µM [rising, full curve, poor fit] | 10 µM [falling, partial curve, poor fit]
18 | CCc1ccc2c(CN(CC)Cc3nc4ccccc4c(=O)[nH]3)cc(=O)oc2c1 | 2.91 µM [falling, partial curve, poor fit] | 3.26 µM [rising, partial curve, poor fit]

From no. 7 up to 8, copied from above:
Row | SMILES | AC50 [1] | AC50 [2]
7 | O=C(Cn1nc(C(F)F)cc1C(F)F)NNC(=S)Nc1ccc([N+](=O)[O-])cc1 | 10 µM [rising, partial curve, poor fit] | –
8 | O=C(Nc1ccnc(-c2cccnc2)n1)c1ccc(Cl)c(Cl)c1 | 3.16 µM [rising, single point] | –

From PubChem BioAssay AID493014 (National Center for Advancing Translational Sciences (NCATS), 2011)
